Experimental findings from paper PMC6125387 are described below.

These are yes or no findings as the source states them, for the method shown. In cells and extracts the contact can be indirect. Some binding calls cover weakened binding; strength is not graded here. For some assays here: Sequences can lack the tags named with a protein.

Assay [1] deals with CRAF, epitope-tagged form (UniProt P04049). Kind of assay: co-IP; MCF-7 cells transfected with epitope-tagged PTPRκ and CRAF (1 μg each); precipitated with anti-FLAG, or pre-immune serum as control; 20 mM HEPES pH 8, 2 mM MgCl2, 2 mM EGTA, 150 mM NaCl, 2.5 mM CHAPS; detected by immunoblot. Background: Immunoblotting shows a protein as a band on a membrane.
Assay [2] addresses CRAF, endogenous (human (endogenous in MCF-7)) (UniProt P04049). The experiment in a line: co-IP; endogenous proteins in MCF-7 cells; control precipitations with pre-immune serum or beads only; 20 mM HEPES pH 8, 2 mM MgCl2, 2 mM EGTA, 150 mM NaCl, 2.5 mM CHAPS; detected by immunoblot.

B1: Protein Tyrosine Phosphatase receptor kappa (PTPRκ), epitope-tagged form (protein, UniProt Q15262 27-1439)
chain: AQGQFSAGGCTFDDGPGACDYHQDLYDDFEWVHVSAQEPHYLPPEMPQGSYMIVDSSDHDPGEKARLQLPTMKENDTHCIDFSYLLYSQKGLNPGTLNILVRVNKGPLANPIWNVTGFTGRDWLRAELAVSTFWPNEYQVIFEAEVSGGRSGYIAIDDIQVLSYPCDKSPHFLRLGDVEVNAGQNATFQCIATGRDAVHNKLWLQRRNGEDIPVAQTKNINHRRFAASFRLQEVTKTDQDLYRCVTQSERGSGVSNFAQLIVREPPRPIAPPQLLGVGPTYLLIQLNANSIIGDGPIILKEVEYRMTSGSWTETHAVNAPTYKLWHLDPDTEYEIRVLLTRPGEGGTGLPGPPLITRTKCAEPMRTPKTLKIAEIQARRIAVDWESLGYNITRCHTFNVTICYHYFRGHNESKADCLDMDPKAPQHVVNHLPPYTNVSLKMILTNPEGRKESEETIIQTDEDVPGPVPVKSLQGTSFENKIFLNWKEPLDPNGIITQYEISYSSIRSFDPAVPVAGPPQTVSNLWNSTHHVFMHLHPGTTYQFFIRASTVKGFGPATAINVTTNISAPTLPDYEGVDASLNETATTITVLLRPAQAKGAPISAYQIVVEELHPHRTKREAGAMECYQVPVTYQNAMSGGAPYYFAAELPPGNLPEPAPFTVGDNRTYQGFWNPPLAPRKGYNIYFQAMSSVEKETKTQCVRIATKAATEEPEVIPDPAKQTDRVVKIAGISAGILVFILLLLVVILIVKKSKLAKKRKDAMGNTRQEMTHMVNAMDRSYADQSTLHAEDPLSITFMDQHNFSPRYENHSATAESSRLLDVPRYLCEGTESPYQTGQLHPAIRVADLLQHINLMKTSDSYGFKEEYESFFEGQSASWDVAKKDQNRAKNRYGNIIAYDHSRVILQPVEDDPSSDYINANYIDGYQRPSHYIATQGPVHETVYDFWRMIWQEQSACIVMVTNLVEVGRVKCYKYWPDDTEVYGDFKVTCVEMEPLAEYVVRTFTLERRGYNEIREVKQFHFTGWPDHGVPYHATGLLSFIRRVKLSNPPSAGPIVVHCSAGAGRTGCYIVIDIMLDMAEREGVVDIYNCVKALRSRRINMVQTEEQYIFIHDAILEACLCGETAIPVCEFKAAYFDMIRIDSQTNSSHLKDEFQTLNSVTPRLQAEDCSIACLPRNHDKNRFMDMLPPDRCLPFLITIDGESSNYINAALMDSYRQPAAFIVTQYPLPNTVKDFWRLVYDYGCTSIVMLNEVDLSQGCPQYWPEEGMLRYGPIQVECMSCSMDCDVINRIFRICNLTRPQEGYLMVQQFQYLGWASHREVPGSKRSFLKLILQVEKWQEECEEGEGRTIIHCLNGGGRSGMFCAIGIVVEMVKRQNVVDVFHAVKTLRNSKPNMVEAPEQYRFCYDVALEYLESS
Turning to B1, the binding result in assay [1] is recorded as “binds”.

B2: Protein Tyrosine Phosphatase receptor kappa (PTPRκ), endogenous (protein, UniProt Q15262 27-1439)
chain: AQGQFSAGGCTFDDGPGACDYHQDLYDDFEWVHVSAQEPHYLPPEMPQGSYMIVDSSDHDPGEKARLQLPTMKENDTHCIDFSYLLYSQKGLNPGTLNILVRVNKGPLANPIWNVTGFTGRDWLRAELAVSTFWPNEYQVIFEAEVSGGRSGYIAIDDIQVLSYPCDKSPHFLRLGDVEVNAGQNATFQCIATGRDAVHNKLWLQRRNGEDIPVAQTKNINHRRFAASFRLQEVTKTDQDLYRCVTQSERGSGVSNFAQLIVREPPRPIAPPQLLGVGPTYLLIQLNANSIIGDGPIILKEVEYRMTSGSWTETHAVNAPTYKLWHLDPDTEYEIRVLLTRPGEGGTGLPGPPLITRTKCAEPMRTPKTLKIAEIQARRIAVDWESLGYNITRCHTFNVTICYHYFRGHNESKADCLDMDPKAPQHVVNHLPPYTNVSLKMILTNPEGRKESEETIIQTDEDVPGPVPVKSLQGTSFENKIFLNWKEPLDPNGIITQYEISYSSIRSFDPAVPVAGPPQTVSNLWNSTHHVFMHLHPGTTYQFFIRASTVKGFGPATAINVTTNISAPTLPDYEGVDASLNETATTITVLLRPAQAKGAPISAYQIVVEELHPHRTKREAGAMECYQVPVTYQNAMSGGAPYYFAAELPPGNLPEPAPFTVGDNRTYQGFWNPPLAPRKGYNIYFQAMSSVEKETKTQCVRIATKAATEEPEVIPDPAKQTDRVVKIAGISAGILVFILLLLVVILIVKKSKLAKKRKDAMGNTRQEMTHMVNAMDRSYADQSTLHAEDPLSITFMDQHNFSPRYENHSATAESSRLLDVPRYLCEGTESPYQTGQLHPAIRVADLLQHINLMKTSDSYGFKEEYESFFEGQSASWDVAKKDQNRAKNRYGNIIAYDHSRVILQPVEDDPSSDYINANYIDGYQRPSHYIATQGPVHETVYDFWRMIWQEQSACIVMVTNLVEVGRVKCYKYWPDDTEVYGDFKVTCVEMEPLAEYVVRTFTLERRGYNEIREVKQFHFTGWPDHGVPYHATGLLSFIRRVKLSNPPSAGPIVVHCSAGAGRTGCYIVIDIMLDMAEREGVVDIYNCVKALRSRRINMVQTEEQYIFIHDAILEACLCGETAIPVCEFKAAYFDMIRIDSQTNSSHLKDEFQTLNSVTPRLQAEDCSIACLPRNHDKNRFMDMLPPDRCLPFLITIDGESSNYINAALMDSYRQPAAFIVTQYPLPNTVKDFWRLVYDYGCTSIVMLNEVDLSQGCPQYWPEEGMLRYGPIQVECMSCSMDCDVINRIFRICNLTRPQEGYLMVQQFQYLGWASHREVPGSKRSFLKLILQVEKWQEECEEGEGRTIIHCLNGGGRSGMFCAIGIVVEMVKRQNVVDVFHAVKTLRNSKPNMVEAPEQYRFCYDVALEYLESS
For the molecule B2, in assay [2], the binding entry is listed as “binds”.
